Laboratory results from US20160228506A1, “Compositions and Formulations for Prevention and Reduction of Tumorigenesis, Cancer Cell Proliferation and Invasion, and Methods of Production and Use Thereof in Cancer Treatment” (PRONUTRIA, INC., priority 2013, published 2016).

Assay: Secreted protein level from Bacillus subtilis by chip electrophoresis
Details: for SEQID-00341 mg/l/OD: secreted SEQID-00341 fused to the signal peptide; for SEQID-00341 mg/l/OD / SEQID-00352 mg/l/OD / SEQID-00338 mg/l/OD / SEQID-00103 mg/l/OD / SEQID-00105 mg/l/OD: B. subtilis leader peptide library; for SEQID-00352 mg/l/OD: secreted SEQID-00352 fused to the signal peptide; for SEQID-00338 mg/l/OD: secreted SEQID-00338 fused to the signal peptide; for SEQID-00103 mg/l/OD: secreted SEQID-00103 fused to the signal peptide; for SEQID-00105 mg/l/OD: secreted SEQID-00105 fused to the signal peptide

3936 (MKRITINIITMFIAAAVISLTGTAEA; listed as Bacillus subtilis) [compound 3936]
SEQID-00341 mg/l/OD: 61.7 mg/l/OD

3935 (MKRMIVRMTLPLLIVCLAFSSFSASARA; listed as Bacillus subtilis) [compound 3935]
SEQID-00352 mg/l/OD: 0.69 mg/l/OD

3947 (MTLTKLKMLSMLTVMIASLFIFSSQALA; listed as Bacillus subtilis) [compound 3947]
SEQID-00338 mg/l/OD: 6.3 mg/l/OD

3949 (MTKKAWFLPLVCVLLISGWLAPAASASA; listed as Bacillus subtilis) [compound 3949]
SEQID-00352 mg/l/OD: 2.26 mg/l/OD

3950 (MRKSLITLGLASVIGTSSFLIPFTSKTASA; listed as Bacillus subtilis) [compound 3950]
SEQID-00103 mg/l/OD: 14.6 mg/l/OD | SEQID-00105 mg/l/OD: 124.4 mg/l/OD

3930 (MKRLCLWFTVFSLFLVLLPGKALG; listed as Bacillus subtilis) [compound 3930]
SEQID-00341 mg/l/OD: 64.4 mg/l/OD

3938 (MKKKQVMLALTAAAGLGLTALHSAPAAKA; listed as Bacillus subtilis) [compound 3938]
SEQID-00103 mg/l/OD: 20.8 mg/l/OD

3954 (MNKPTKLFSTLALAAGMTAAAAGGAGTIHA; listed as Bacillus subtilis) [compound 3954]
SEQID-00105 mg/l/OD: 131 mg/l/OD

3945 (MRFTKVVGFLSVLGLAAVFPLTAQA; listed as Bacillus subtilis) [compound 3945]
SEQID-00105 mg/l/OD: 124.3 mg/l/OD

3941 (MNFKKTVVSALSISALALSVSGVASA; listed as Bacillus subtilis) [compound 3941]
SEQID-00103 mg/l/OD: 14.3 mg/l/OD | SEQID-00105 mg/l/OD: 152.7 mg/l/OD

3926 (MKSCKQLIVCSLAAILLLIPSVSFA; listed as Bacillus subtilis) [compound 3926]
SEQID-00338 mg/l/OD: 3.4 mg/l/OD

3939 (MKWMCSICCAAVLLAGGAAQA; listed as Bacillus subtilis) [compound 3939]
SEQID-00103 mg/l/OD: 9.4 mg/l/OD

3948 (MKRKLLSSLAISALSLGLLVSAPTASFAAE; listed as Bacillus subtilis) [compound 3948]
Other SEQ IDs mg/l/OD (secreted SEQID-00404 fused to the signal peptide): 2.5 mg/l/OD

3924 (MRKNRILALFVLSLGLLSFMVTPVSA; listed as Bacillus subtilis) [compound 3924]
SEQID-00338 mg/l/OD: 5.7 mg/l/OD | SEQID-00341 mg/l/OD: 41.9 mg/l/OD | Other SEQ IDs mg/l/OD (secreted SEQID-00398 fused to the signal peptide): 5.5 mg/l/OD

3940 (MKKELLASLVLCLSLSPLVSTNEVFA; listed as Bacillus subtilis) [compound 3940]
SEQID-00105 mg/l/OD: 83.4 mg/l/OD | SEQID-00341 mg/l/OD: 80.2 mg/l/OD

3923 (MRKKTKNRLISSVLSTVVISSLLFPGAAGA; listed as Bacillus subtilis) [compound 3923]
SEQID-00341 mg/l/OD: 40.4 mg/l/OD

3921 (MKKKKTWKRFLHFSSAALAAGLIFTSAAPAEA; listed as Bacillus subtilis) [compound 3921]
SEQID-00103 mg/l/OD: 12.1 mg/l/OD | SEQID-00105 mg/l/OD: 135.7 mg/l/OD | SEQID-00338 mg/l/OD: 9.5 mg/l/OD | SEQID-00341 mg/l/OD: 148.14 mg/l/OD | Other SEQ IDs mg/l/OD (secreted SEQID-00405 fused to the signal peptide): 3.1 mg/l/OD

3952 (MRKYTVIASILLSFLSVLSGG; listed as Bacillus subtilis) [compound 3952]
SEQID-00103 mg/l/OD: 26.2 mg/l/OD

3922 (MKRSISIFITCLLITLLTMGGMIASPASA; listed as Bacillus subtilis) [compound 3922]
SEQID-00103 mg/l/OD: 12.1 mg/l/OD | SEQID-00105 mg/l/OD: 73.6 mg/l/OD | SEQID-00341 mg/l/OD: 33.9 mg/l/OD | SEQID-00352 mg/l/OD: 2.7 mg/l/OD

3955 (MVKSFRMKALIAGAAVAAAVSAGAVSDVPAAKVLQPTAAYA; listed as Bacillus subtilis) [compound 3955]
SEQID-00352 mg/l/OD: 3.7 mg/l/OD

3942 (MKRLFMKASLVLFAVVFVFAVKGAPAKA; listed as Bacillus subtilis) [compound 3942]
SEQID-00103 mg/l/OD: 20 mg/l/OD

3944 (MKKIGLLFMLCLAALFTIGFPAQQADA; listed as Bacillus subtilis) [compound 3944]
SEQID-00103 mg/l/OD: 13.3 mg/l/OD

3953 (MKKLLTVMTMAVLTAGTLLLPAQSVTPAAHA; listed as Bacillus subtilis) [compound 3953]
Other SEQ IDs mg/l/OD (secreted SEQID-403 fused to the signal peptide): 3.4 mg/l/OD

3929 (MRNLTKTSLLLAGLCTAAQMVFVTHASA; listed as Bacillus subtilis) [compound 3929]
SEQID-00341 mg/l/OD: 37.5 mg/l/OD

3951 (MKRIRIPMTLALGAALTIAPLSFASA; listed as Bacillus subtilis) [compound 3951]
SEQID-00103 mg/l/OD: 17.7 mg/l/OD

3933 (MKKRKRRNFKRFIAAFLVLALMISLVPADVLA; listed as Bacillus subtilis) [compound 3933]
SEQID-00338 mg/l/OD: 7 mg/l/OD | SEQID-00352 mg/l/OD: 2.14 mg/l/OD

3937 (MRKKRVITCVMAASLTLGSLLPAGYASA; listed as Bacillus subtilis) [compound 3937]
SEQID-00105 mg/l/OD: 135.6 mg/l/OD

3956 (MKWNNMLKAAGIAVLLFSVFAYAAPSLKAVQA; listed as Bacillus subtilis) [compound 3956]
SEQID-00338 mg/l/OD: 7.9 mg/l/OD | SEQID-00341 mg/l/OD: 41.5 mg/l/OD | SEQID-00352 mg/l/OD: 0.95 mg/l/OD

3931 (MKLKTKASIKFGICVGLLCLSITGFTPFFNSTHAEA; listed as Bacillus subtilis) [compound 3931]
SEQID-00352 mg/l/OD: 2.8 mg/l/OD

3943 (MLKKKWMVGLLAGCLAAGGFSYNAFA; listed as Bacillus subtilis) [compound 3943]
SEQID-00341 mg/l/OD: 132.5 mg/l/OD | SEQID-00352 mg/l/OD: 2.23 mg/l/OD

3927 (MKKKLAAGLTASAIVGTTLVVTPAEA; listed as Bacillus subtilis) [compound 3927]
SEQID-00103 mg/l/OD: 14.8 mg/l/OD

3934 (MFKFKKNFLVGLSAALMSISLFSATASA; listed as Bacillus subtilis) [compound 3934]
SEQID-00103 mg/l/OD: 13.4 mg/l/OD | SEQID-00105 mg/l/OD: 114.4 mg/l/OD | SEQID-00338 mg/l/OD: 9.8 mg/l/OD | SEQID-00341 mg/l/OD: 83.3 mg/l/OD
